Measured values as given in patent publication US20230227838A1, “ENHANCED CELL SURVIVAL AGAINST BIOTIC AND ABIOTIC STRESSES THROUGH SALICYLICK ACID-INDUCED NPR1 CONDENSATES” (priority 2020, published 2023).

Tested on: sim3-GFP
Assay: Quantitative LC-MS/MS of sim3-GFP interactome (SINC components)
Parameters: species or system Arabidopsis thaliana
Settings: protein enrichment in the sim3-GFP interactome (SINC components), SA-treated samples versus mock

B1: AT4G09730 (protein, UniProt Q56X76 1-621, looked up)
DEAD-box ATP-dependent RNA …: MVGASRTILSLSLSSSLFTFSKIPHVFPFLRLHKPRFHHAFRPLYSAAATTSSPTTETNVTDPDQLKHTILLERLRLRHLKESAKPPQQRPSSVVGVEEESSIRKKSKKLVENFQELGLSEEVMGALQELNIEVPTEIQCIGIPAVMERKSVVLGSHTGSGKTLAYLLPIVQLMREDEANLGKKTKPRRPRTVVLCPTRELSEQVYRVAKSISHHARFRSILVSGGSRIRPQEDSLNNAIDMVVGTPGRILQHIEEGNMVYGDIAYLVLDEADTMFDRGFGPEIRKFLAPLNQRALKTNDQGFQTVLVTATMTMAVQKLVDEEFQGIEHLRTSTLHKKIANARHDFIKLSGGEDKLEALLQVLEPSLAKGSKVMVFCNTLNSSRAVDHYLSENQISTVNYHGEVPAEQRVENLKKFKDEEGDCPTLVCTDLAARGLDLDVDHVVMFDFPKNSIDYLHRTGRTARMGAKGKVTSLVSRKDQMLAARIEEAMRNNESLESLTTDNVRRDAARTHITQEKGRSVKQIREVSKQRNSRDKPSSSSPPARSTGGKTPVRKSSSSSFSKPRKASSPPEKSSKPKRKILKTVGSRSIAARGKTGSDRRPGKKLSVVGFRGKSSSARAS
Normalized Fold Change: SA vs Mock: 46.88

B2: AT4G34135 (protein, UniProt Q94C57 1-483, looked up)
UDP-glucosyl transferase 73B2: MGSDHHHRKLHVMFFPFMAYGHMIPTLDMAKLFSSRGAKSTILTTSLNSKILQKPIDTFKNLNPGLEIDIQIFNFPCVELGLPEGCENVDFFTSNNNDDKNEMIVKFFFSTRFFKDQLEKLLGTTRPDCLIADMFFPWATEAAGKFNVPRLVFHGTGYFSLCAGYCIGVHKPQKRVASSSEPFVIPELPGNIVITEEQIIDGDGESDMGKFMTEVRESEVKSSGVVLNSFYELEHDYADFYKSCVQKRAWHIGPLSVYNRGFEEKAERGKKANIDEAECLKWLDSKKPNSVIYVSFGSVAFFKNEQLFEIAAGLEASGTSFIWVVRKTKDDREEWLPEGFEERVKGKGMIIRGWAPQVLILDHQATGGFVTHCGWNSLLEGVAAGLPMVTWPVGAEQFYNEKLVTQVLRTGVSVGASKHMKVMMGDFISREKVDKAVREVLAGEAAEERRRRAKKLAAMAKAAVEEGGSSFNDLNSFMEEFSS
Normalized Fold Change: SA vs Mock: 8.082

B3: AT4G37760 (protein, UniProt Q8VYH2 1-525, looked up)
Squalene epoxidase 3: MAPTIFVDHCILTTTFVASLFAFLLLYVLRRRSKTIHGSVNVRNGTLTVKSGTDVDIIIVGAGVAGAALAHTLGKEGRRVHVIERDLTEPDRIVGELLQPGGYLKLIELGLEDCVKDIDAQRVLGYALFKDGKHTKLSYPLDQFDSDVAGRSFHNGRFVQRMREKASLLPNVRMEQGTVTSLVEENGIIKGVQYKTKDGQELKSFAPLTIVCDGCFSNLRRSLCKPKVEVPSNFVGLVLENCELPFPNHGHVVLGDPSPILFYPISSSEVRCLVDVPGSKLPSVASGEMAHHLKTMVAPQVPPQIRDAFISAVEKGNIRTMPNRSMPADPIHTPGALLLGDAFNMRHPLTGGGMTVALSDIVILRDLLNPLVDLTNKESLSKYIESFYTLRKPVASTINTLAGALYKVFLASPDDARSEMRRACFDYLSLGGVCSSGPVALLSGLNPRPMSLVLHFFAVAIFGVGRLLVPLPSVKRLWLGARLISSASGIIFPIIKAEGVRQMFFPRTIPAIYRAPPTPSSSSPQ
Normalized Fold Change: SA vs Mock: 50.12

B4: AT2G43410 (protein, UniProt Q8LPQ9 1-901, looked up)
Flowering time control …: MALSMKPFRADDSGFQSNNLWVGSLTPETTESDLTELFGRYGDIDRITVYSSRGFAFIYYRHVEEAVAAKEALQGANLNGSQIKIEYARPAKPCKSLWVGGIGPNVSKDDLEEEFSKFGKIEDFRFLRERKTAFIDYYEMDDALQAKSMNGKPMGGSFLRVDFLRSQAPKKEQWAGSYDNRNGNMNHKPQYPHSYEDFKGDVQPSKVLWIGFPPTATQCNDEQILHNAMILFGEIERVKSYPSRNFALVEFRSAEEARQCKEGLQGRLFNNPRIKIMYSNDELPPEQDDTSFYSGMKRSRTDMFNNDPSFVSSPHSTGIPGSMRPLRGTNERSYNGAEYNDVVGKEPNWRRPSANGTGILPSPTGPGILPSPAQGTRRPMRSNPDSWEGYDPAQLVRESKRTRRDGSVDGFTPMGVDERSFGRGSVAARPIRGPPDSDHIWRGMIAKGGTPVCCARCVPMGKGIETKLPEVVNCSARTDLNMLAKHYAVAIGCEIVFFVPDREEDFASYTEFLRYLSSKDRAGVAKLDDGTTLFLVPPSDFLTDVLQVTRQERLYGVVLKLPPPAVPVTASYRQESQSNPLHYMDQARDSPANASHSLYPPRENYIRGAPEHLTAASKPSVSEPLRIPNNAAPQAGVSLTPELLATLASILPATSQPAAPESHQPMSGPSTVVSTAHQSNGLYNGEAPSQAWKRGPQTVHDASNQSFQQYGNQYTPAGQLPPPPSRYPPASNNPNYTSGMVHGNMQYQSQSVNMPQLSPLPNMPHNNYSMYTQGSSNHPVSQPMVQQYQPEASMPNQNYGPIPSYQQANFHGVTTNQAQNLNPSQFQAAMQPPADKANLEPQNQALRLQPMISGDGQGTTDGEVDKNQRYQSTLQFAANLLLQIQQKQQQQSSGTPAGQGP
Normalized Fold Change: SA vs Mock: 4.866

B5: AT3G26830 (protein)
chain: MSVFLCFLVLLPLILIFLNVLKPSKYKLPPGPKKLPIIGNLHQRRTLHPRNRRNLAEMYGPVALLQYGFVPVVAISSKEAAEEVLKINDLECCSRPEAAGMRATFYNFKDIGMAPFGDEWSLMRKLSVVELFSVKKLQSFKYIIEEENNLCVKKLSEFATRQSPVNLERAIFTLVGNIVCRIGYGINLYECDFFEADRVVDLVLKAEAVIRETVFSDFFPGRIGRFIDCISGQNRRLKNNFSVVDTFFQNVLNEHLKPGRESSTIVDLMIDMKKKQENDGDALKFTTDHLKGMISDIFVAGIGGVAGITLWGMTELIRNPRVMKKVQDEIRTTLGDKKERIKEEDLNQLHYFKLVVKETLRLHPTTPLLLPRQTMSHIKIQGYDVPAKTQILVNVYAMGRDPKLWENADEFNPDRFLDSSVDFKGKNYEFIPFGSGRRICPGMTMGTILVEMALLNLLYFFDWGLAKQEEAKEIINGEENFLAFFQVLHH
Normalized Fold Change: SA vs Mock: 14.61

B6: AT1G78380 (protein)
chain: MANEVILLDFWPSMFGMRTRIALREKGVEFEYREEDLRNKSPLLLQMNPIHKKIPVLIHNGKPVNESIIQVQYIDEVWSHKNPILPSDPYLRAQARFWADFIDKKLYDAQRKVWATKGEEQEAGKKDFIEILKTLESELGDKPYFSGDDFGYVDIALIGFYTWFPAYEKFANFSIESEVPKLIAWVKKCLQRESVAKSLPDPEKVTEFVSELRKKFVPE
Normalized Fold Change: SA vs Mock: 2.584

B7: AT4G05420 (protein)
chain: MSSWNYVVTAHKPTSVTHSCVGNFTSPQELNLIVAKCTRIEIHLLTPQGLQPMLDVPIYGRIATLELFRPHGEAQDFLFIATERYKFCVLQWDPESSELITRAMGDVSDRIGRPTDNGQIGIIDPDCRLIGLHLYDGLFKVIPFDNKGQLKEAFNIRLEELQVLDIKFLFGCAKPTIAVLYQDNKDARHVKTYEVSLKDKDFVEGPWSQNSLDNGADLLIPVPPPLCGVLIIGEETIVYCSASAFKAIPIRPSITKAYGRVDVDGSRYLLGDHAGMIHLLVITHEKEKVTGLKIELLGETSIASTISYLDNAVVFVGSSYGDSQLVKLNLHPDAKGSYVEVLERYINLGPIVDFCVVDLERQGQGQVVTCSGAFKDGSLRVVRNGIGINEQASVELQGIKGMWSLKSSIDEAFDTFLVVSFISETRILAMNLEDELEETEIEGFLSQVQTLFCHDAVYNQLVQVTSNSVRLVSSTTRELRDEWHAPAGFTVNVATANASQVLLATGGGHLVYLEIGDGKLTEVQHALLEYEVSCLDINPIGDNPNYSQLAAVGMWTDISVRIFSLPELTLITKEQLGGEIIPRSVLLCAFEGISYLLCALGDGHLLNFQMDTTTGQLKDRKKVSLGTQPITLRTFSSKSATHVFAASDRPTVIYSSNKKLLYSNVNLKEVSHMCPFNSAAFPDSLAIAREGELTIGTIDDIQKLHIRTIPLGEHARRICHQEQTRTFGICSLGNQSNSEESEMHFVRLLDDQTFEFMSTYPLDSFEYGCSILSCSFTEDKNVYYCVGTAYVLPEENEPTKGRILVFIVEDGRLQLIAEKETKGAVYSLNAFNGKLLAAINQKIQLYKWMLRDDGTRELQSECGHHGHILALYVQTRGDFIVVGDLMKSISLLLYKHEEGAIEERARDYNANWMSAVEILDDDIYLGAENNFNLLTVKKNSEGATDEERGRLEVVGEYHLGEFVNRFRHGSLVMRLPDSEIGQIPTVIFGTVNGVIGVIASLPQEQYTFLEKLQSSLRKVIKGVGGLSHEQWRSFNNEKRTAEARNFLDGDLIESFLDLSRNKMEDISKSMNVQVEELCKRVEELTRLH
Normalized Fold Change: SA vs Mock: 2.522

B8: AT4G31500 (protein)
chain: MDLLLIIAGLVAAAAFFFLRSTTKKSLRLPPGPKGLPIIGNLHQMEKFNPQHFLFRLSKLYGPIFTMKIGGRRLAVISSAELAKELLKTQDLNFTARPLLKGQQTMSYQGRELGFGQYTAYYREMRKMCMVNLFSPNRVASFRPVREEECQRMMDKIYKAADQSGTVDLSELLLSFTNCVVCRQAFGKRYNEYGTEMKRFIDILYETQALLGTLFFSDLFPYFGFLDNLTGLSARLKKAFKELDTYLQELLDETLDPNRPKQETESFIDLLMQIYKDQPFSIKFTHENVKAMILDIVVPGTDTAAAVVVWAMTYLIKYPEAMKKAQDEVRSVIGDKGYVSEEDIPNLPYLKAVIKESLRLEPVIPILLHRETIADAKIGGYDIPAKTIIQVNAWAVSRDTAAWGDNPNEFIPERFMNEHKGVDFKGQDFELLPFGSGRRMCPAMHLGIAMVEIPFANLLYKFDWSLPKGIKPEDIKMDVMTGLAMHKKEHLVLAPTKHI
Normalized Fold Change: SA vs Mock: 2.418
